Some results were stated once for a whole list of compounds, not compound by compound.
Tested on: C. elegans
Assay: anesthesia: inhibition of movement and recovery
Type: in vivo
Details: following VA exposure; 100% of the animals had recovered
Procedure: The VA anesthetics used were 2-Bromo-2-chloro-1,1,1-trifluoroethane (Halothane, Fluka, catalog #16730) and Isoflurane (Webster Veterinary NDC#14043-220-05). VA anesthetics were delivered as follows: lids of 1.5 ml eppendorf tubes were cut off, VA was pipetted into the lids, and the lids containing VAs were placed onto plates containing 10 adult wild-type or gcy-8 animals grown as described, and the plates were immediately sealed with parafilm. To inhibit neuronal signaling during the course of heat shock, the VA containing lids were placed on plates 5 minutes prior to the heat shock, and retained during the heat shock treatment of 34° C. for 15 minutes. The lids were then removed 10 minutes post-heat shock during recovery at 20° C., when the plates had equilibrated to 20° C. To inhibit neuronal signaling following the administration of heat shock, animals were heat shocked, and then the lids containing the same volume of VA was placed onto plates 20 minutes post-heat shock, and removed after 30 minutes.
As has been described before, the effect of the VA is extremely variable in any given population of C. elegans (15, 16) and is also influenced by other environmental factors, such as population density, to which the animals are exposed (15). Therefore it was necessary to titrate the amount of VA used for each experiment. […]

Structure (SMILES): FC(F)OC(Cl)C(F)(F)F (stereo not shown) [isoflurane, Isoflurane]
- time to recovery from the effects of the anesthesia (actively moving on plates): ≤ 1 h
